Test results as given in patent publication US20190016764A1 (KYUNGPOOK NATIONAL UNIVERSITY INDUSTRY ACADEMIC COOPERATION …, published 2019).
No constants are given. Whether binding was seen depends on the method and setting. Some entries that bind do so weakly or less than the wild type. Sequences can lack the tags named with a protein.

Tests used:
EPCR in mouse vena cava = molecular target: T1, EPCR in mouse vena cava (mouse, UniProt Q64695 18-242); assay: immunohistochemistry of mouse vena cava after i.v. injection of the fluorescence-labelled molecule; colocalisation with anti-EPCR staining
T1 construct: whole, on cells; Endogenous receptor in tissue sections of C57BL/6 mice; also called EPCR (mouse, in vivo)
T1 sequence (looked up): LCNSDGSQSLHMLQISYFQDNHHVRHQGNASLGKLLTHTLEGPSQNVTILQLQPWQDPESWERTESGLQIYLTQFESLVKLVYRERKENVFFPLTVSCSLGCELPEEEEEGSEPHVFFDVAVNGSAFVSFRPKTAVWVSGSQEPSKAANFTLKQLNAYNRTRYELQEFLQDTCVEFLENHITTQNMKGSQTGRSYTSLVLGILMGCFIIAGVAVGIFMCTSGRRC

[1] = molecular target: T2, soluble EPCR (endothelial protein C receptor) (UniProt Q9UNN8); assay: solid-phase ELISA on sEPCR
T2 sequence (looked up): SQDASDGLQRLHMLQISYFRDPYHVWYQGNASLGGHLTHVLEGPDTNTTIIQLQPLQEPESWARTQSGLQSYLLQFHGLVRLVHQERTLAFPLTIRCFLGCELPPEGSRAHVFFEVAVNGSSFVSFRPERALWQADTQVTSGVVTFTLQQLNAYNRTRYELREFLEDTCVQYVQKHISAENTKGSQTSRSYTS

[2] = molecular target: T2, soluble EPCR (endothelial protein C receptor); assay: summary of Example 3 (solid-phase ELISA on sEPCR)

Measured: binding

B1: TFMG (TRAP-ferritin monomer fragment-linker-PC-Gla fusion polypeptide) (other)
chain: MGGTTFLLRNASGHMSSQIRQNYSTDVEAAVNSLVNLYLQASYTYLSLGFYFDRDDVALEGVSHFFRELAEEKREGYERLLKMQNQRGGRIFLQDIKKPAEDEWGKTPDAMKAAMALEKKLNQALLDLHALGSARTDPHLCDFLETHFLDEEVKLIKKMGDHLTNLHRLGGGSEFVDGGGSGTSGPLGLAGANSFLEELRHSSLERECIEEICDFEEAKEIFQNVDDTLAFWSKHVLEHHHHHH
notes: also called TMFG; TFME
binds: all assays above

B2: TFG (TRAP-ferritin monomer fragment-PC-Gla fusion polypeptide) (other)
chain: MGGTTFLLRNASGHMSSQIRQNYSTDVEAAVNSLVNLYLQASYTYLSLGFYFDRDDVALEGVSHFFRELAEEKREGYERLLKMQNQRGGRIFLQDIKKPAEDEWGKTPDAMKAAMALEKKLNQALLDLHALGSARTDPHLCDFLETHFLDEEVKLIKKMGDHLTNLHRLGGGSEFVDGGGSGTSANSFLEELRHSSLERECIEEICDFEEAKEIFQNVDDTLAFWSKHVLEHHHHHH
notes: also called TRAP-ferritin-PC-Gla; TFG nanocage
binds: all assays above
